Values from PubChem BioAssay AID1224828 (NIAID, 2016)
Aim: 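Regulators linking TLR4 signalling to p65 nuclear translocation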 (primary screen). Cells: mouse RAW264.7 G9 macrophage reporter cells (GFP-p65, Tnf promoter-mCherry). Reagents: siRNA pool against mouse genes, 100 nM. Duration: 2 days siRNA transfection, then 40 min LPS before fixation. Challenge: LPS (Salmonella minnesota R595) at 10 ng/ml. Measurement: 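Microscopy ratio of nuclear to perinuclear-ring GFP-p65 signal, scaled to the plate median; gene score is the average of two replicate robust z-scores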. Reading the numbers: p65 translocation robust z-score: higher = more nuclear NF-kappaB p65 after LPS than the plate median; nuclear/cytoplasmic p65 ratio: higher = more nuclear NF-kappaB p65. Call rule: 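Active if robust z is above 3.3 (negative regulators) or below -1.56, the Tlr4 control median (positive regulators); activity score 50 or more; control wells not called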. Calls: active = hit (p65 shift raised or lowered); inactive = no clear change.
In all, the deposit lists about 17,000 reagents; below is a random part of them. 762 of them (4.5%) count as active. 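Active calls include both raised and lowered p65 entry, mostly lowered; wells with fewer than 50 cells lack a z-score.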 Raw values vary from plate to plate and are shown uncorrected. Entries without a mark were called inactive. The numbers tell different reagents against one gene apart. A reagent listed more than once was tested more than once; the source does not tell the runs apart.

| Gene | pool no. | p65 translocation robust z-score | nuclear/cytoplasmic p65 ratio, rep 1 | nuclear/cytoplasmic p65 ratio, rep 2 | low cell count flag |
| --- | --- | --- | --- | --- | --- |
| Asb14 | 1 | -0.58 | 1.43 | 1.51 | enough cells to score |
| Zfp46 | 1 | – | 1.12 | 1.22 | fewer than 50 cells per well; well left out of scoring |
| Larp1b | 1 | – | 1.29 | 1.51 | fewer than 50 cells per well; well left out of scoring |
| Or8k20 | 1 | -1.39 | 1.29 | 1.33 | enough cells to score |
| Ndufb11b | 1 | -1.56 | 1.09 | 1.32 | enough cells to score |
| Arhgap44 | 1 | – | 1.27 | 1.68 | fewer than 50 cells per well; well left out of scoring |
| Capza3 | 1 | -2.55 (active) | 1.21 | 1.36 | enough cells to score |
| Cers6 | 1 | 0.97 | 1.67 | 1.58 | enough cells to score |
| Zfp346 | 1 | 0.07 | 1.42 | 1.26 | enough cells to score |
| Trappc3 | 1 | – | 1.42 | 1.11 | fewer than 50 cells per well; well left out of scoring |
| Or10g1 | 1 | 1.74 | 1.86 | 1.66 | enough cells to score |
| Fgd4 | 1 | 1.6 | 1.81 | 1.69 | enough cells to score |
| Ormdl3 | 1 | 0.7 | 1.56 | 1.3 | enough cells to score |
| Or2y1d | 1 | -1.6 (active) | 1.45 | 1.14 | enough cells to score |
| Commd9 | 1 | -0.75 | 1.55 | 1.57 | enough cells to score |
| Idh3g | 1 | -2.65 (active) | 1.21 | 1.04 | enough cells to score |
| Htr1b | 1 | -0.64 | 1.44 | 1.47 | enough cells to score |
| Zfp689 | 1 | -0.41 | 1.37 | 1.35 | enough cells to score |
| Pawr | 1 | -1.91 (active) | 1.23 | 1.12 | enough cells to score |
| Cbfa2t3 | 1 | 1.05 | 1.71 | 1.42 | enough cells to score |
| Ttyh3 | 1 | – | 1.09 | 1.13 | fewer than 50 cells per well; well left out of scoring |
| Fabp2 | 1 | -0.62 | 1.34 | 1.32 | enough cells to score |
| Slc4a4 | 1 | -0.33 | 1.45 | 1.5 | enough cells to score |
| Marveld3 | 1 | 0.83 | 1.92 | 1.71 | enough cells to score |
| Dido1 | 1 | -0.3 | 1.36 | 1.53 | enough cells to score |
| Dido1 | 2 | -0.65 | 1.37 | 1.27 | enough cells to score |
| Stc2 | 1 | -0.74 | 1.37 | 1.11 | enough cells to score |
| Arhgap29 | 1 | -0.34 | 1.6 | 1.52 | enough cells to score |
| Grk3 | 1 | -1.21 | 1.43 | 1.28 | enough cells to score |
| Grk3 | 1 | -0.1 | 1.5 | 1.56 | enough cells to score |
| Six6 | 1 | 0.14 | 1.58 | 1.56 | enough cells to score |
| Cyp2c40 | 1 | 0.63 | 1.52 | 2.05 | enough cells to score |
| Fkbp11 | 1 | 0.11 | 1.35 | 1.48 | enough cells to score |
| Raet1e | 1 | 1.24 | 1.48 | 1.41 | enough cells to score |
| Rad54l | 1 | 0.19 | 1.63 | 1.46 | enough cells to score |
| Mrpl37 | 1 | -0.59 | 1.57 | 1.5 | enough cells to score |
| Acaa2 | 1 | 0.27 | 1.57 | 1.73 | enough cells to score |
| Gbp2 | 1 | -0.95 | 1.24 | 1.32 | enough cells to score |
| Shmt1 | 1 | 0.92 | 1.7 | 1.67 | enough cells to score |
| Top2b | 1 | 0.5 | 1.57 | 1.61 | enough cells to score |
| Kcnk12 | 1 | 2.81 | 2 | 1.76 | enough cells to score |
| Lrrc4b | 1 | 0.03 | 1.72 | 1.55 | enough cells to score |
| Spmip8 | 1 | -0.16 | 1.37 | 1.4 | enough cells to score |
| 9330175E14Rik | 1 | -0.25 | 1.29 | 1.61 | enough cells to score |
| 9330175E14Rik | 2 | – | 1.31 | 1.3 | fewer than 50 cells per well; well left out of scoring |
| Hadhb | 1 | 0.12 | 1.45 | 1.39 | enough cells to score |
| Prrg2 | 1 | – | 1.27 | 1.21 | fewer than 50 cells per well; well left out of scoring |
| Clec4e | 1 | -1.11 | 1.41 | 1.62 | enough cells to score |
| Tead4 | 1 | – | 1.31 | 1.17 | fewer than 50 cells per well; well left out of scoring |
| Sh3bp5 | 1 | -1.24 | 1.23 | 1.4 | enough cells to score |
| Or6e1 | 1 | 0.19 | 1.47 | 1.25 | enough cells to score |
| Ncoa1 | 1 | 0.27 | 1.45 | 1.4 | enough cells to score |
| Agfg1 | 1 | -0.01 | 1.45 | 1.36 | enough cells to score |
| Pigo | 1 | -1.36 | 1.29 | 1.06 | enough cells to score |
| Ccna2 | 1 | -1.08 | 1.05 | 1.24 | enough cells to score |
| Slc5a6 | 1 | -1.05 | 1.26 | 1.16 | enough cells to score |
| Sema3f | 1 | 0.89 | 1.57 | 1.79 | enough cells to score |
| Rtp4 | 1 | 0.72 | 1.66 | 1.78 | enough cells to score |
| Asb11 | 1 | -0.51 | 1.57 | 1.4 | enough cells to score |
| Lpcat4 | 1 | -0.45 | 1.59 | 1.56 | enough cells to score |
| Dazap2 | 1 | -1.03 | 1.32 | 1.24 | enough cells to score |
| Aldh18a1 | 1 | -1.5 | 1.41 | 1.22 | enough cells to score |
| Gnal | 1 | – | 1.37 | 1.42 | fewer than 50 cells per well; well left out of scoring |
| Oxct2b | 1 | 0.76 | 1.5 | 1.36 | enough cells to score |
| Or5p73 | 1 | – | 1.39 | 1.09 | fewer than 50 cells per well; well left out of scoring |
| Or7c70 | 1 | 3.37 (active) | 1.96 | 2 | enough cells to score |
| Brd4 | 1 | -2.13 (active) | 1.28 | 1.31 | enough cells to score |
| Slit2 | 1 | 0.88 | 1.59 | 1.7 | enough cells to score |
| Ppp1r2-ps9 | 1 | 0.4 | 1.66 | 1.68 | enough cells to score |
| Klc3 | 1 | 0.16 | 1.46 | 1.43 | enough cells to score |
| Bbs7 | 1 | 0.06 | 1.58 | 1.67 | enough cells to score |
| Nxpe2 | 1 | – | 1.27 | 1.33 | fewer than 50 cells per well; well left out of scoring |
| Tfb1m | 1 | -0.7 | 1.41 | 1.49 | enough cells to score |
| Ankfy1 | 1 | -0.14 | 1.58 | 1.66 | enough cells to score |
| Cartpt | 1 | -0.37 | 1.5 | 1.61 | enough cells to score |

12 consecutive reagents from above:
| Gene | pool no. | p65 translocation robust z-score | nuclear/cytoplasmic p65 ratio, rep 1 | nuclear/cytoplasmic p65 ratio, rep 2 | low cell count flag |
| --- | --- | --- | --- | --- | --- |
| Fabp2 | 1 | -0.62 | 1.34 | 1.32 | enough cells to score |
| Slc4a4 | 1 | -0.33 | 1.45 | 1.5 | enough cells to score |
| Marveld3 | 1 | 0.83 | 1.92 | 1.71 | enough cells to score |
| Dido1 | 1 | -0.3 | 1.36 | 1.53 | enough cells to score |
| Dido1 | 2 | -0.65 | 1.37 | 1.27 | enough cells to score |
| Stc2 | 1 | -0.74 | 1.37 | 1.11 | enough cells to score |
| Arhgap29 | 1 | -0.34 | 1.6 | 1.52 | enough cells to score |
| Grk3 | 1 | -1.21 | 1.43 | 1.28 | enough cells to score |
| Grk3 | 1 | -0.1 | 1.5 | 1.56 | enough cells to score |
| Six6 | 1 | 0.14 | 1.58 | 1.56 | enough cells to score |
| Cyp2c40 | 1 | 0.63 | 1.52 | 2.05 | enough cells to score |
| Fkbp11 | 1 | 0.11 | 1.35 | 1.48 | enough cells to score |
